The results in this text go back to article PMC4900677.

Chains of the proteins cited; added tags and fusions are not shown. Chains listed by the source or under a name are the forms on record and can include a tag or linker.
IFI16 (Homo sapiens), one chain, as listed by the source: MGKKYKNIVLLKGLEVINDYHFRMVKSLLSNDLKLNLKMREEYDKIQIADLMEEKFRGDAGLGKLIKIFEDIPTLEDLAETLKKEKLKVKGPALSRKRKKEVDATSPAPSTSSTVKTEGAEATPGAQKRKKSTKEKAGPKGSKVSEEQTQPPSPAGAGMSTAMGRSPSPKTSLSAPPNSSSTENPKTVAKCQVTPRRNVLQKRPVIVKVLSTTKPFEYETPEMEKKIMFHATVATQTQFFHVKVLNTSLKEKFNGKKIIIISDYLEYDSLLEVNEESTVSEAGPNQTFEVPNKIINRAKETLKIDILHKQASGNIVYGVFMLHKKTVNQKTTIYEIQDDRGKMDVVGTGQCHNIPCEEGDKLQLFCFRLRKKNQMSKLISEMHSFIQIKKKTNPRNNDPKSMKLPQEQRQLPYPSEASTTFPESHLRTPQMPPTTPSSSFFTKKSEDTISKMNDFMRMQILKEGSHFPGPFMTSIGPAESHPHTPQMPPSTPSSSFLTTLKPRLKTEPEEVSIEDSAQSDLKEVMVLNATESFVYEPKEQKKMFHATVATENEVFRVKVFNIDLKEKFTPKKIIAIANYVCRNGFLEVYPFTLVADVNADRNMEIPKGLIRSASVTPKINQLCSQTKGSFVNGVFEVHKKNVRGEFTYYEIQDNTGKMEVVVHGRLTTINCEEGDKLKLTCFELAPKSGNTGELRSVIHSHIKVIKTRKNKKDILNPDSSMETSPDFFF

Construct, isoform or probe ends are uncertain for at least one entry. A weaker result is weaker than the reference pair of the same experiment.

For this data set, the system named is IFI16 (Homo sapiens). Nature of the data set: HDX-MS. The conditions noted are these: PYRIN only, HIN domains unchanged; recombinant protein; protein details: N-terminal 6xHis; label: 3'-FAM (EMSA).

Consider “TTGGGGCGCTTATGGGGAGGGTGGGGAGGGTGGGGAAGGTGGGGAGGAGACT (double strand) [DS NHEIII]”, for which the binding result was “binds more weakly”.
